Data taken from PMC7655804.

Biological target: ferroportin from Philippine tarsier (Carlito syrichta / Tarsius syrichta) (Carlito syrichta (Tarsius syrichta, Philippine tarsier))
Assay: SEC; purified TsFpn alone on SRT-3C SEC-300 column; 20 mM HEPES pH 7.5, 150 mM NaCl, 1 mM DDM; both purified

binding: no binding
Substance: ferroportin from Philippine tarsier (Carlito syrichta / Tarsius syrichta) (from UniProt A0A1U7U6F1 1-572)

Results are given in words; binding and its absence hold for the method and conditions named.
